Results deposited as PubChem BioAssay AID1259281 (Sanger Institute, 2017).
The deposit covers 794 reagents; this is an unselected part. 22 of all reagents (2.8%) count as active. 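Calls rest on knock-down alone only; drug synergy scores play no part in them.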 Not all columns of the deposit are shown. Not stated in the record: the amount of reagent, the time to read-out.

Assay: 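Find knock-downs that kill colorectal cancer cells alone or strengthen targeted drugs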 (primary screen)
Cells: human COLO678 colorectal cancer cell line
Knock-down reagent: siRNA pool against human genes
Challenge: anchor drugs at fixed doses: BYL719 1 µM, cetuximab 5 µg/ml or trametinib 10 nM; DMSO vehicle for the siRNA-alone arm
Detection: 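Surviving cells scaled to non-targeting siRNA control as replicate means; robust z-score for knock-down alone; synergy scores weigh knock-down with drug against the predicted combined effect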
Direction: robust z-score, siRNA alone: higher = more viable cells; strongly negative means essential
Call rule: 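Called essential (knock-down alone) if knock-down by itself drops cell number to a robust z-score under -3; all others no change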
Meaning of the calls: active = essential (knock-down alone); inactive = no change

| target gene | PubChem SID | robust z-score, siRNA alone | activity call |
| --- | --- | --- | --- |
| MAPKAPK2 | SID56478668 | 0.473 | inactive |
| PAK3 | SID56478716 | -2.77 | inactive |
| NEK3 | SID152154962 | 0.473 | inactive |
| PHKB | SID134312707 | 0.203 | inactive |
| STK40 | SID56479025 | -0.861 | inactive |
| CDK14 | SID56478888 | 0.473 | inactive |
| ACVR2B | SID135620907 | 0.365 | inactive |
| PACSIN1 | SID56479194 | 0.473 | inactive |
| PRKX | SID152149946 | -0.13 | inactive |
| PI4KB | SID135621252 | 0.473 | inactive |
| SRMS | SID56479047 | -1.34 | inactive |
| TAOK3 | SID152152167 | 0.473 | inactive |
| SBK1 | SID152154198 | 0.473 | inactive |
| LYN | SID135620625 | 0.473 | inactive |
| SPHK2 | SID56478885 | 0.473 | inactive |
| MAP4K1 | SID56478699 | -0.0994 | inactive |
| ROR1 | SID135620631 | 0.473 | inactive |
| MPP3 | SID152152750 | 0.473 | inactive |
| ERN1 | SID135620914 | -0.048 | inactive |
| PFKFB1 | SID135621245 | 0.473 | inactive |
| AURKB | SID152151121 | 0.116 | inactive |
| RPS6KL1 | SID152155635 | 0.473 | inactive |
| AMHR2 | SID56478996 | 0.473 | inactive |
| BMP2K | SID135620930 | 0.259 | inactive |
| CDK16 | SID152150805 | -0.201 | inactive |
| AAK1 | SID152151067 | -3.37 | active |
| RSKR | SID56478814 | 0.473 | inactive |
| TAB1 | SID135620883 | 0.473 | inactive |
| GRK2 | SID152155453 | 0.473 | inactive |
| WHR1 | SID152154332 | 0.473 | inactive |
| PLK1 | SID56478632 | -0.276 | inactive |
| PTGS1 | SID134310518 | -1.17 | inactive |
| CLK2 | SID152151259 | 0.473 | inactive |
| NEK7 | SID56478729 | 0.473 | inactive |
| MGA | SID135624287 | 0.473 | inactive |
| MAPK11 | SID56478748 | 0.473 | inactive |
| EIF2AK3 | SID152151333 | 0.473 | inactive |
| DGKD | SID56479091 | -1.41 | inactive |
| MYO3A | SID152148134 | 0.473 | inactive |
| PIP4K2B | SID152147971 | 0.455 | inactive |
| ASPM | SID135623115 | -2.35 | inactive |
| NUP98 | SID152147776 | 0.473 | inactive |
| THNSL1 | SID152147285 | 0.473 | inactive |
| SOX9 | SID134325081 | 0.473 | inactive |
| WNK4 | SID56478961 | 0.473 | inactive |
| MAP2K5 | SID135620764 | 0.473 | inactive |
| AMER1 | SID135623077 | 0.473 | inactive |
| AK5 | SID56478914 | 0.473 | inactive |
| MAST2 | SID152154248 | 0.473 | inactive |
| EPHA3 | SID152156000 | -0.751 | inactive |
| VRK2 | SID152152279 | -0.258 | inactive |
| EFNB3 | SID134315611 | 0.368 | inactive |
| CDK17 | SID56478886 | 0.473 | inactive |
| ITK | SID135620623 | 0.473 | inactive |
| AXL | SID152148834 | 0.473 | inactive |
| SRP72 | SID135623816 | 0.473 | inactive |
| BCR | SID152154242 | -4.31 | active |
| ITPKA | SID152154114 | 0.473 | inactive |
| PKM | SID135621254 | 0.473 | inactive |
| PTK2 | SID56478542 | -3.21 | active |
| POLR2B | SID134315545 | 0.473 | inactive |
| TSKS | SID56479267 | 0.473 | inactive |
| RYK | SID152147158 | 0.473 | inactive |

Sorted by “robust z-score, siRNA alone” (high to low): some entries from above
| target gene | PubChem SID | robust z-score, siRNA alone | activity call |
| --- | --- | --- | --- |
| CDK17 | SID56478886 | 0.473 | inactive |
| ITK | SID135620623 | 0.473 | inactive |
| AXL | SID152148834 | 0.473 | inactive |
| SRP72 | SID135623816 | 0.473 | inactive |
| ITPKA | SID152154114 | 0.473 | inactive |
| PKM | SID135621254 | 0.473 | inactive |
| EFNB3 | SID134315611 | 0.368 | inactive |
| VRK2 | SID152152279 | -0.258 | inactive |
| PTK2 | SID56478542 | -3.21 | active |
| BCR | SID152154242 | -4.31 | active |
